Measured values as given in article PMC10221034 (2023).
No constants are given. Whether binding was seen depends on the method and setting. Binding can be weak; no strength is given.

Key:
[1] = target: T1, wild-type rTpiA (recombinant Streptococcus pneumoniae D39 triosephosphate isomerase) (Streptococcus pneumoniae D39) (UniProt Q04JH4); test: ELISA; rTpiA coated at 1 µg/well overnight at 4 °C; blocked with 1% skim milk in PBST; 1 µg/well human plasminogen, 37 °C, 1 h; detected with anti-plasminogen antibody and AP-linked secondary antibody, A405; both purified
T1 sequence: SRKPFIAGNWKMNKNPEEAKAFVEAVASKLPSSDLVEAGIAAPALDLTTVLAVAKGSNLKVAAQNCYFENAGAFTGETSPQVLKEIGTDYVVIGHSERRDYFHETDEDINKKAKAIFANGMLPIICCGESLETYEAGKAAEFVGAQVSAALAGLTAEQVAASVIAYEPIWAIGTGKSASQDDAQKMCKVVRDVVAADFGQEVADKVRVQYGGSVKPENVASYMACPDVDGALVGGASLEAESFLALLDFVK

[2] = target: T1, wild-type rTpiA (recombinant Streptococcus pneumoniae D39 triosephosphate isomerase) (Streptococcus pneumoniae D39); test: far-Western, overlay or dot blot; rTpiA (200 ng) separated by SDS-PAGE and transferred onto PVDF; membrane blocked with 5% BSA in TBST, incubated 90 min with 30 µg/mL plasminogen at 25 °C; bound plasminogen probed with rabbit polyclonal anti-plasminogen and HRP secondary antibody; both purified

Question: What does the source list for human plasma plasminogen?
Answer: binding [1]: binds; binding [2]: binds
